Values from PubChem BioAssay AID1259405 (NCATS, 2018)
Test: 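Silenced genes that increase secreted GFP made by CHO cells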 (primary screen). Cells: Chinese hamster CHO-K1 ovary cells with stable secreted eGFP expression. Knock-down reagent: single siRNA against mouse genes, 0.8 pmol siRNA per well (2 µl of 400 nM stock). Time to read-out: 3 days. Measurement: 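Per-well intracellular GFP measured by laser scanning cytometry, plus viability from ATP luminescence, each relative to plate median of non-targeting control wells, in %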. Scale: GFP, % of control: higher = more GFP per well, higher productivity. Rule for the call: 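Called active when intracellular GFP, relative to negative control, is at or above 120%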.
The deposit covers about 50,000 reagents; this is a random part of them. Over the whole deposit, about 4,000 (8%) were called active. 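Mouse siRNA library applied to hamster cells; one well for each siRNA.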 The numbers tell different reagents against one gene apart. Not all columns of the deposit are shown.

GFP, % of control, by target gene and reagent
Ice2 (interactor of little elongation complex ELL subunit 2): #1 89.2 inactive; #2 107 inactive; #3 103 inactive
Trim44 (tripartite motif-containing 44): #1 115 inactive; #2 65.2 inactive; #3 64.8 inactive
Plekhg2 (pleckstrin homology and RhoGEF domain containing G2): #1 60.8 inactive; #2 74.7 inactive; #3 42.4 inactive
Bpifa3 (BPI fold containing family A, member 3): #1 81.6 inactive; #2 78.2 inactive; #3 74.5 inactive
Ces1d (carboxylesterase 1D): #1 97 inactive; #2 101 inactive; #3 44.5 inactive
Klra19 (killer cell lectin-like receptor, subfamily A, member 19): #1 85.6 inactive; #2 101 inactive; #3 101 inactive
Or1j21 (olfactory receptor family 1 subfamily J member 21): #1 110 inactive; #2 55.3 inactive; #3 91.9 inactive
Cpa6 (carboxypeptidase A6): #1 65.6 inactive; #2 98.3 inactive; #3 87.3 inactive
Bnipl (BCL2/adenovirus E1B 19kD interacting protein like): #1 35.7 inactive; #2 64.1 inactive; #3 185 active
Vmn1r14 (vomeronasal 1 receptor 14): #1 34.2 inactive; #2 108 inactive; #3 70.2 inactive
Cdipt (CDP-diacylglycerol--inositol 3-phosphatidyltransferase): #1 135 active; #2 75.6 inactive; #3 116 inactive
Cert1 (ceramide transporter 1): #1 112 inactive; #2 78.6 inactive; #3 76.5 inactive
Or4c106 (olfactory receptor family 4 subfamily C member 106): #1 51.8 inactive; #2 60.3 inactive; #3 54.2 inactive
Bltp1 (bridge-like lipid transfer protein family member 1): #1 113 inactive; #2 117 inactive; #3 82.5 inactive
Ggnbp2 (gametogenetin binding protein 2): #1 79.2 inactive; #2 45.6 inactive; #3 66.2 inactive
Wdr11 (WD repeat domain 11): #1 56.3 inactive; #2 55.2 inactive; #3 80 inactive
Uqcrc2 (ubiquinol cytochrome c reductase core protein 2): #1 67.4 inactive; #2 56.8 inactive; #3 55.9 inactive
Acbd3 (acyl-Coenzyme A binding domain containing 3): #1 60.9 inactive; #2 54.7 inactive; #3 85.4 inactive
Trim27 (tripartite motif-containing 27): #1 70.8 inactive; #2 66.4 inactive; #3 89.7 inactive
Kit (Kit proto-oncogene receptor tyrosine kinase): #1 81.9 inactive
Egflam (EGF-like, fibronectin type III and laminin G domains): #1 41.6 inactive; #2 58.5 inactive; #3 28.6 inactive
Samtor (S-adenosylmethionine sensor upstream of mTORC1): #1 111 inactive; #2 66.9 inactive; #3 58.6 inactive
Ctns (cystinosis, nephropathic): #1 82 inactive; #2 120 active; #3 61.4 inactive
Rpl3l (ribosomal protein L3-like): #1 33.4 inactive; #2 64.2 inactive; #3 44.3 inactive
Ifng (interferon gamma): #1 56.5 inactive; #2 77.5 inactive; #3 78.3 inactive
Aspa (aspartoacylase): #1 75.1 inactive; #2 269 active
Ncf2 (neutrophil cytosolic factor 2): #1 84.2 inactive; #2 40.6 inactive; #3 76 inactive
Ocel1 (occludin/ELL domain containing 1): #1 126 active; #2 58.5 inactive; #3 47.9 inactive
Ddx31 (DEAD/H box helicase 31): #1 61.1 inactive; #2 120 inactive; #3 105 inactive
